Laboratory results taken from PubChem BioAssay AID1347423 (Functional Genomics Laboratory (NCATS/FGL), 2020).
In all, about 52,000 sequences went through this assay and about 210 (0.4%) were called active.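 How the source made its calls: active means gene whose silencing raises cell survival under the drug, median off-target-corrected z-score across its silencing RNAs 2 or more; inactive means the rest.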 The list shows a part of the results.

Assay: Resistance to Poly (ADP-Ribose) Polymerase inhibitor: Gene Identification via Genome-wide siRNA Screen
Conditions: mouse BRCA2 R2336H ES cells, olaparib, CellTiter-Glo viability; hits give high values
Procedure, shortened: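 Genome-wide siRNA screen (3 siRNAs/gene, 20 nM) in mouse ES cells carrying hypomorphic BRCA2 R2336H; olaparib 500 nM added 48 h post-transfection, CellTiter-Glo viability 72 h later. Normalized to plate-median negative control; MAD z-scores, gene median, seed-adjusted.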

Sequence | z-score
GGUUUGCAAUAAUUUUCCCTT against Cyp2c66 | inactive: 0.303
GCAUUCAAUUCUCUAUGGUTT against BC017643 | inactive: 1.26
GGGAGAAUCGUCAAUGAUGTT against Dpysl3 | inactive: -0.0761
GGCAUUUCAUAGAGAGAAUTT against Oraov1 | inactive: -1.5
GCUCCCUUAGGCUAUGAUATT against Ash2l | inactive: -1.36
GCAACAUAAAUCCCAAAGUTT against Myo1h | inactive: 0.569
GGCCUUGUGUGUCCAUCAATT against 4933421I07Rik | inactive: 0.0613
GGCCAGUUUAAACCAGUCUTT against 4930488L10Rik | inactive: -0.757
GGAAGUGCUUAUGUCCUUATT against Cited2 | inactive: -0.0128
CCCGAUUAAAGUUUUGACCTT against Pbx4 | inactive: 1.06
GGCUUACCGAAAGCAAGCCTT against Dnajb4 | inactive: -0.777
GGAGAAAAACACAUCCCAUTT against Foxa2 | inactive: 0.21
GGGUGUCAUCCUUAUCCUGTT against Olfr655 | inactive: 1.21
GGAAGGAUCCCAAAUUCAGTT against Pbp | inactive: 0.36
GCCGACUCAUGGUUUAGAATT against Tmem18 | inactive: -0.47
GCAAGUUUAGUGAAUUGUGTT against Ddx58 | inactive: 1.68
GGGCUAUCGACUCAACAGATT against Kif23 | inactive: 0.363
GGUGAUUUCAAAUGAAAGCTT against Prps2 | inactive: 0.208
GGACUUAGAAGUCUGCUAATT against Iqcb1 | inactive: -0.296
GCCUUAGAGCACAUUCAGATT against 1200013I08Rik | inactive: 0.0327
GGAUUUGAUCCGAUACCUGTT against Timeless | inactive: -0.483
GCAAGUCCUAAUAUUGUGATT against Rab5a | inactive: 2.74

Sequence | z-score
GCCCUUACUUAGGUCUAGGTT against Kctd12 | inactive: -1.18
GGCCAUGGUUUCAAAAACATT against 2610028F08Rik | inactive: 0.903
GGAUCACACCAUCAAAAAGTT against Copb1 | inactive: -3.48
GGGAAUUGGCUAUCACAGATT against 1300010M03Rik | inactive: -1.55
GGUGAGAACUCAAGAGACUTT against Scp2 | inactive: 0.104
GGAACUUCUGGAAUCCCUCTT against Klra5 | inactive: -0.0821
CGAUUCUUUAGGAACUUUGTT against Pak7 | inactive: -0.0698
GGCUUACCUAAUCAAUUGUTT against Laptm4a | inactive: -0.0726
GGCGAUAAGGAACAGAAGUTT against Ppp3r1 | inactive: 1.57
GGAAUCUGUUGAACAUAUCTT against Csnb | inactive: -0.795
GCUUGAUUAUUGUGUGUCCTT against Olfr786 | inactive: 0.14
AUGGUAUACUAUUAUGCUGTT against MGC107671 | inactive: 0.93
GGUUGUAUUAUCUUCGGAATT against Psmb8 | inactive: 0.178
GCGCAAGGAAGAUGCCCAUTT against Dub1a | inactive: 0.381
CCCUUUCUAGAAAGUCAGUTT against 4930513F16Rik | inactive: -1.08
GGAAGUAUGAAAUUAUCAGTT against Car12 | inactive: 1.44
CCUCAUCACUCAUAGCAGATT against Gfi1 | inactive: -1.33
GGCAUUGAAGGAAGUGAUCTT against 1810042K04Rik | inactive: 0.123
GGACCUUUCUCAACUACUATT against 9530090G24Rik | inactive: -0.829
GGCGUAAACAUGGUGUGCATT against A130052D22 | inactive: -2.48
GCAAAAUAGCCAGUUAAUGTT against Strn | inactive: 0.661
GGAAACCUUUUACCUUUAATT against Padi1 | inactive: 0.0441

Sequence | z-score
CGGGUAUGCCUUAUGUUGATT against Etnk2 | inactive: 0.272
UCUCCAUAUCCUAUGGAAGTT against Olfr813 | inactive: 1.36
GCACGUACGAAGCAAGUAATT against Gm14 | inactive: -1.22
GGGAUCAGGCCAUUUCCAUTT against Vav2 | inactive: -0.697
GGUUUUGCUCUCUAUUUGUTT against Ube2e3 | inactive: -0.131
GGUGUCAGAAAUUUCCAUATT against 9030221M09Rik | inactive: 0.485
GGCUCUCACACUCAAGUAUTT against Srpr | inactive: 1.02
GGGUACCUGUGGUUUUUGUTT against Cecr5 | inactive: 0.104
GGGUUCAUUUCUCACCUCCTT against Bcl7b | inactive: -0.914
GGAAAUGACACUUAUUGAATT against Ndst4 | inactive: 1.01
CCGUCGUGGAGCCAUUAAATT against Prkcd | inactive: -0.609
GGAAGGGCAUCCACUUUGATT against 1110007H17Rik | inactive: -1.01
CCUUCACUCUGUAAGGUGCTT against 1110007C09Rik | inactive: -1.14
GCCCUCACAGCCAGAAUUGTT against 4632424B03Rik | inactive: 1.06
GGACACUUGAUAAAUCUUCTT against Lace1 | inactive: 1.09
GGGCAAAGUGAUUGGCAUATT against Amid | inactive: 0.2
GGCAGCUGAAGAUUAUGGATT against Tagln | inactive: 2.21
GGUAUGCUAACAGAACACGTT against Nr1h4 | inactive: 0.175
GGGACAGAUGGUCGAUGAATT against E130308A19Rik | inactive: -1.26
GGACCAGUUAAAGUGGCAGTT against Oas1e | inactive: 0.461
GACUUCAGGCACACAUUGCTT against Cdc42ep5 | inactive: -0.904
GCACCUUUGCAUAUCUAAATT against Olfr115 | inactive: -0.487

Part of the list above, with tabs.
Sequence	z-score
GGGAAUUGGCUAUCACAGATT against 1300010M03Rik	inactive: -1.55
GGUGAGAACUCAAGAGACUTT against Scp2	inactive: 0.104
GGAACUUCUGGAAUCCCUCTT against Klra5	inactive: -0.0821
CGAUUCUUUAGGAACUUUGTT against Pak7	inactive: -0.0698
GGCUUACCUAAUCAAUUGUTT against Laptm4a	inactive: -0.0726
